Source: PubChem BioAssay AID777 (Sanford-Burnham Center for Chemical Genomics, 2007)
Only a part is listed here, and it is no random draw. Calls of active or inactive are those of the source.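 The calls were made as follows: active = blocking of liver enzyme CYP2C9 beyond about 50% at 5 µM (limit read from the data); inactive = the rest.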

Amino acid sequences for entries named in this document (tags omitted).
UniProt P11712, whole entry, looked up: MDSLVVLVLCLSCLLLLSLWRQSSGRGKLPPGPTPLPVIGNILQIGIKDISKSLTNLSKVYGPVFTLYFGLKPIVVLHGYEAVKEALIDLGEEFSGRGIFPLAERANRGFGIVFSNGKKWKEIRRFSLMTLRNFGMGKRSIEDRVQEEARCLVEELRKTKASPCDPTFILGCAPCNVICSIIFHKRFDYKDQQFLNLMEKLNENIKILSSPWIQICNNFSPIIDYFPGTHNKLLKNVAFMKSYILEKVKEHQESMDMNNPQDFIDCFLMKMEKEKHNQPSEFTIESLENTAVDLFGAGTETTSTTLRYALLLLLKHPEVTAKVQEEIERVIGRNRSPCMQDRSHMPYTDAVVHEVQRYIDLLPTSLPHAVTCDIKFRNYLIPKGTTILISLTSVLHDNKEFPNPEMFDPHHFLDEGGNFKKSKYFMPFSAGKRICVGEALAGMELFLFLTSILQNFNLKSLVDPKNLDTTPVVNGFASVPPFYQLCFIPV

Each molecule was assayed against Cytochrome P450 2C9 (Homo sapiens) (UniProt P11712) (assay: blockers of cytochrome P450 2C9 activity – biochemical, luminescence, ADME assay, primary screen (AID 777)). Settings: CYP2C9 Supersomes, luciferin-H conversion, at 5 µM, stronger effect = higher value.
In the case of COC(=O)C1=C(C(=O)OC)C(c2cc(Cl)ccc2O)c2sc(=O)[nH]c2S1 (stereo unspecified), the inhibition is reported as active: 81.3%.
